“Also recorded” adds a separate entry of the source.
Test system: human activin A
Assay: activin A ELISA (DuoSet kit) for total activin A protein in supernatants and purified material
Conditions: for ELISA concentration (ng/ml) / ELISA concentration: concentrated culture supernatants, HEK 293F, Example 11; for Mean Results MEAN CCN: 10x concentrated supernatant, final calculated stock concentration; for ELISA concentration (activin A protein in supernatant): concentrated supernatant (10x; ACTD3 4x)

Molecule | ELISA concentration (ng/ml) | Mean Results MEAN CCN [ng/mL] | ELISA concentration (activin A protein in supernatant) [ng/mL] | ELISA concentration [ng/mL]
ACTN56: activin A variant peptide, SEQ ID 57 (protein) GLECDGKVNICCKKQSFGQAKDIGWNDWIIAPSGYHGGSCTGECPSHIAGTSGSSLSFHSTVINHYRMRGHSPFANLKSCCAPTKLRPMSMLYYDDGQNIIKKDIQNMVVEECGCV | not present in sufficient amounts to measure by ELISA; also recorded: not detectable | – | – | –
ACTN65: activin A variant peptide, SEQ ID 66 (protein) GLECDGKVNICCKKQSFGQTKDIGWNDWIIAPSGYHGGSCSGECPSHIAGTSGSSLSFHSTVINHYRMRGHSPFANLKSCCSPTKLRPMSMLYYDDGQNIIKKDIQGMKVEECGCT | not present in sufficient amounts to measure by ELISA; also recorded: not detectable | – | – | –
ACTN69: activin A variant peptide, SEQ ID 70 (protein) GLECDGKVNICCKKQSFGKTKDIGWNDWIIAPSGYHGGGCTGECPSHIAGTSGSSLSFHSTVINHYRMRGHSPFANLKSCCSPTKLRPMSMLYYDDGQNIIKKDIQQMVVEECGCT | not present in sufficient amounts to measure by ELISA; also recorded: not detectable | – | – | –
ACTN4: activin A variant peptide, SEQ ID 5 (protein) GLECDGKVNLCCKKQLFVSFKDIGWNDWIIAPSGYHANHCSGLCPSHIAGTSGSSLSFHSTVINHYRMRGHSPFSDMGACCVPTKLRPMSMLYYDDGQNIIKKDIQNMIVEECGCS | 1,874 ng/ml | 719 | – | –
ACTN16: activin A variant peptide, SEQ ID 17 (protein) GLECDGKVNLCCKKQLFVSFKDIGWNDWIIAPSGYHANHCSGLCPSHIAGTSGSSLSFHSTVINHYRMRGHSPFSQMGACCVPTKLRPMSMLYYDDGQNIIKKDIQNMIVEECGCS | 2,113 ng/ml | 41 | 968 | –
ACTN34: activin A variant peptide, SEQ ID 35 (protein) GLECDGKVNYCCKKQLFVSFKDIGWNDWIIAPSGYHANHCTGKCPSHIAGTSGSSLSFHSTVINHYRMRGHSPFSDLGSCCVPTKLRPMSMLYYDDGQNIIKKDIQNMIVEECGCS | 1,154 ng/ml | 830 | 1161 | –
ACTN40: activin A variant peptide, SEQ ID 41 (protein) GLECDGKVNLCCKKQLFVSFKDIGWNDWIIAPSGYHANHCAGLCPSHIAGTSGSSLSFHSTVINHYRMRGHSPFSNMGSCCVPTKLRPMSMLYYDDGQNIIKKDIQNMIVEECGCS | 2,041 ng/ml | 584 | – | –
ACTN27: activin A variant peptide, SEQ ID 28 (protein) GLECDGKVNLCCKKQLFVSFKDIGWNDWIIAPSGYHANHCDGKCPSHIAGTSGSSLSFHSTVINHYRMRGHSPFANRGACCIPTKLRPMSMLYYDDGQNIIKKDIQNMIVEECGCS | – | – | – | 115
ACTN28: activin A variant peptide, SEQ ID 29 (protein) GLECDGKVNYCCKKQLFVSFKDIGWNDWIIAPSGYHANHCSGKCPSHIAGTSGSSLSFHSTVINHYRMRGHSPFANMGSCCIPTKLRPMSMLYYDDGQNIIKKDIQNMIVEECGCS | – | – | – | 810
ACTN29: activin A variant peptide, SEQ ID 30 (protein) GLECDGKVNLCCKKQLFVSFKDIGWNDWIIAPSGYHANHCSGKCPSHIAGTSGSSLSFHSTVINHYRMRGHSPFSDMGSCCIPTKLRPMSMLYYDDGQNIIKKDIQNMIVEECGCS | 1,392 ng/ml | – | – | –
ACTN31: activin A variant peptide, SEQ ID 32 (protein) GLECDGKVNTCCKKQLFVSFKDIGWNDWIIAPSGYHANHCSGKCPSHIAGTSGSSLSFHSTVINHYRMRGHSPFSDMGSCCIPTKLRPMSMLYYDDGQNIIKKDIQNMIVEECGCS | 3,243 ng/ml | – | – | –
ACTN47: activin A variant peptide, SEQ ID 48 (protein) GLECDGKVNYCCKKQNFVSFKDIGWNDWIIAPSGYHANECSGKCPSHIAGTSGSSLSFHSTVINHYRMRGHSPFSDMGSCCIPTKLRPMSMLYYDDGQNIIKKDIQNMIVEECGCS | – | – | – | 179
ACTN48: activin A variant peptide, SEQ ID 49 (protein) GLECDGKVNLCCKKQNFVSFKDIGWNDWIIAPSGYHANECSGLCPSHIAGTSGSSLSFHSTVINHYRMRGHSPFANMGACCIPTKLRPMSMLYYDDGQNIIKKDIQNMIVEECGCS | 7,587 ng/ml | – | – | –
ACTN11: activin A variant peptide, SEQ ID 12 (protein) GLECDGKVNLCCKKQLFVSFKDIGWNDWIIAPSGYHANHCSGLCPSHIAGTSGSSLSFHSTVINHYRMRGHSPFAQMGACCIPTKLRPMSMLYYDDGQNIIKKDIQNMIVEECGCS | – | – | – | 386
ACTN12: activin A variant peptide, SEQ ID 13 (protein) GLECDGKVNYCCKKQNFVSFKDIGWNDWIIAPSGYHANECSGLCPSHIAGTSGSSLSFHSTVINHYRMRGHSPFSQMGSCCIPTKLRPMSMLYYDDGQNIIKKDIQNMIVEECGCS | – | – | – | 310
